The supplement of paper PMC10331698
± gives the standard deviation of the averaged measurements. Most values lie at the level of the controls, where differences are scatter.

What was measured:
Experiment in all cases: level (log10 ratio to DMSO vehicle control); higher = higher biomarker level / cell amount than vehicle control
[1] = compound: FC(F)(F)COC(OCC(F)(F)F)OCC(F)(F)F [tris(Trifluoroethoxy)methane] (in DMSO); conditions: 2200 nM
Experimental: (§1)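 BioMAP Diversity Plus panel of 12 human primary cell co-culture systems (3C, 4H, LPS, SAg, BT, BF4T, BE3C, CASM3C, HDF3CGF, KF3CT, MyoF, Mphg). Compounds were added 1 h before stimulation and left for 24 h (MyoF 48 h; BT 72 h for soluble read-outs or 6 d for IgG). Biomarkers were read by ELISA, cytotoxicity by SRB, PBMC viability and proliferation by Alamar Blue. Each well value was divided by the mean of 8 DMSO control wells on the same plate and log10 transformed; duplicate blinded samples were tested at 4 concentrations.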

[2] = compound: OCCCC(F)(F)C(F)(F)C(F)(F)C(F)(F)C(F)(F)C(F)(F)C(F)(F)C(F)(F)F [3-(Perfluorooctyl)propanol] (in DMSO); conditions: 2200 nM
Experimental: as §1

[3] = compound: OCC(F)(F)C(F)(F)C(F)(F)C(F)(F)C(F)(F)C(F)(F)F [6:1 Fluorotelomer alcohol] (in DMSO); conditions: 2200 nM
Experimental: as §1

[4] = compound: O=C(O)C(F)(F)C(F)(F)C(F)(F)OC(F)(C(F)(F)F)C(F)(F)F [Perfluoro-4-isopropoxybutanoic acid] (in DMSO); conditions: 2200 nM
Experimental: as §1

[5] = compound: FC(F)(F)C(F)(F)C(F)(F)C(F)(F)CCI [1H,1H,2H,2H-Perfluorohexyl iodide] (in DMSO); conditions: 2200 nM
Experimental: as §1

Perfluorohexanoic acid = compound: O=C(O)C(F)(F)C(F)(F)C(F)(F)C(F)(F)C(F)(F)F [Perfluorohexanoic acid] (in DMSO)
Experimental: as §1

[6] = compound: O=C(O)C(F)(OC(F)(F)C(F)(F)C(F)(F)F)C(F)(F)F [Ammonium perfluoro-2-methyl-3-oxahexanoate] (in Water)
Experimental: as §1

[7] = compound: OCC(F)(F)OC(F)(F)C(F)(F)OC(F)(F)CO [1H,1H,8H,8H-Perfluoro-3,6-dioxaoctane-1,8-diol] (in DMSO); conditions: 2200 nM
Experimental: as §1

[8] = compound: O=C(O)C(F)(OC(F)(F)C(F)(OC(F)(F)C(F)(OC(F)(F)C(F)(F)C(F)(F)F)C(F)(F)F)C(F)(F)F)C(F)(F)F [Perfluoro-(2,5,8-trimethyl-3,6,9-trioxadodecanoic)acid] (in DMSO); conditions: 370 nM
Experimental: as §1

[9] = compound: CNS(=O)(=O)C(F)(F)C(F)(F)C(F)(F)C(F)(F)C(F)(F)C(F)(F)C(F)(F)C(F)(F)F [N-Methylperfluorooctanesulfonamide] (in DMSO); conditions: 2200 nM
Experimental: as §1

[10] = compound: OCC(F)(F)C(F)(F)C(F)(F)C(F)(F)C(F)(F)C(F)(F)CO [1H,1H,8H,8H-Perfluorooctane-1,8-diol] (in DMSO); conditions: 2200 nM
Experimental: as §1

[11] = compound: O=C(O)CCC(F)(F)C(F)(F)C(F)(F)F [3:3 Fluorotelomer carboxylic acid] (in DMSO); conditions: 2200 nM
Experimental: as §1

[12] = compound: O=S(=O)(O)C(F)(F)C(F)(F)C(F)(F)C(F)(F)F [Perfluorobutanesulfonic acid] (in DMSO)
Experimental: as §1

Hexafluoroglutaric acid = compound: O=C(O)C(F)(F)C(F)(F)C(F)(F)C(=O)O [Hexafluoroglutaric acid] (in DMSO)
Experimental: as §1

[13] = compound: C=C(C)C(=O)OCCC(F)(F)C(F)(F)C(F)(F)C(F)(F)C(F)(F)C(F)(F)F [6:2 Fluorotelomer methacrylate] (in DMSO); conditions: 2200 nM
Experimental: as §1

[14] = compound: OCC(F)(F)C(F)(F)C(F)(F)C(F)F [1H,1H,5H-Perfluoropentanol] (in DMSO); conditions: 2200 nM
Experimental: as §1

[15] = compound: FC(F)(F)C(F)(F)CNCC(F)(F)C(F)(F)F [Bis(1H,1H-perfluoropropyl)amine] (in DMSO); conditions: 2200 nM
Experimental: as §1

| Test System | level (log10) [1] | level (log10) [2] | level (log10) [3] | level (log10) [4] | level (log10) [5] | level (log10) (Perfluorohexanoic acid; 2200 nM) | level (log10) (Perfluorohexanoic acid; 6700 nM) | level (log10) (Perfluorohexanoic acid; 20000 nM) | level (log10) (Perfluorohexanoic acid; 60000 nM) | level (log10) ([6]; 2200 nM) | level (log10) ([6]; 6700 nM) | level (log10) ([6]; 20000 nM) | level (log10) ([6]; 60000 nM) | level (log10) [7] | level (log10) [8] | level (log10) [9] | level (log10) [10] | level (log10) [11] | level (log10) ([12]; 2200 nM) | level (log10) ([12]; 6700 nM) | level (log10) ([12]; 20000 nM) | level (log10) ([12]; 60000 nM) | level (log10) (Hexafluoroglutaric acid; 2200 nM) | level (log10) (Hexafluoroglutaric acid; 6700 nM) | level (log10) (Hexafluoroglutaric acid; 20000 nM) | level (log10) (Hexafluoroglutaric acid; 60000 nM) | level (log10) [13] | level (log10) [14] | level (log10) [15] |
| --- | --- | --- | --- | --- | --- | --- | --- | --- | --- | --- | --- | --- | --- | --- | --- | --- | --- | --- | --- | --- | --- | --- | --- | --- | --- | --- | --- | --- | --- |
| MyoF:TIMP-1 | -0.0675 ± 0.044 | 0 ± 0.021 | 0.022 ± 0.033 | 0.0375 ± 0.044 | 0.0395 ± 0.052 | 0.0175 ± 0.011 | 0.0085 ± 0.0021 | -0.006 ± 0.0042 | 0.0245 ± 0.0064 | -0.0675 ± 0.056 | -0.0395 ± 0.0092 | -0.0635 ± 0.015 | -0.068 ± 0.0028 | -0.0045 ± 0.029 | 0.0025 ± 0.0064 | 0.022 ± 0.045 | 0.001 ± 0.064 | -0.0405 ± 0.03 | -0.0135 ± 0.029 | 0.012 ± 0.014 | 0.009 ± 0.0085 | 0.0205 ± 0.00071 | -0.0215 ± 0.0064 | 0.001 ± 0.014 | -0.0545 ± 0.053 | -0.0205 ± 0.0035 | -0.0135 ± 0.052 | 0.03 ± 0.0071 | -0.0265 ± 0.013 |
| 4H:CCL2/MCP-1 | 0.021 ± 0.072 | 0.0355 ± 0.076 | 0.034 ± 0.03 | 0.027 ± 0.034 | 0.0305 ± 0.026 | 0.007 ± 0.04 | -0.0105 ± 0.00071 | -0.027 ± 0.0071 | 0.012 ± 0.021 | -0.0025 ± 0.04 | 0.0005 ± 0.029 | 0.007 ± 0.037 | 0.008 ± 0.051 | 0.0095 ± 0.1 | -0.001 ± 0.014 | 0.0375 ± 0.033 | 0 ± 0.083 | -0.0175 ± 0.091 | 0.003 ± 0.024 | -0.021 ± 0.0042 | -0.0095 ± 0.023 | -0.017 ± 0.018 | 0.019 ± 0.075 | -0.0095 ± 0.032 | -0.0135 ± 0.011 | 0.0245 ± 0.047 | -0.0035 ± 0.026 | 0.0505 ± 0.018 | 0.001 ± 0.04 |
| HDF3CGF:SRB | 0.013 ± 0.024 | -0.013 ± 0.018 | 0.038 ± 0.0099 | -0.0345 ± 0.026 | -0.0395 ± 0.059 | 0.0055 ± 0.0078 | 0.0135 ± 0.013 | 0.0305 ± 0.022 | -0.0055 ± 0.0092 | 0.0045 ± 0.0078 | -0.033 ± 0.02 | -0.0325 ± 0.0021 | -0.0175 ± 0.011 | -0.0395 ± 0.021 | 0.038 ± 0.028 | -0.0005 ± 0.0021 | -0.026 ± 0.038 | -0.025 ± 0.041 | 0.002 ± 0.011 | 0.018 ± 0.03 | 0.023 ± 0.013 | 0.004 ± 0.033 | -0.0325 ± 0.064 | -0.03 ± 0.083 | -0.0095 ± 0.097 | 0.0245 ± 0.12 | 0.003 ± 0.027 | 0.0035 ± 0.05 | 0.0035 ± 0.025 |
